According to the supplement of paper PMC8551327:
This is one part of the list. Rule as the data show it: active = 1.25 or more and inactive = the rest. Many values rest on one well or one pass, so single values are uncertain.

tested on: Kcc2-LUC knock-in mouse primary cortical neurons (Kcc2 promoter reporter); test: Kcc2 promoter-driven luciferase activity relative to vehicle control (fold of vehicle (ratio)); higher = stronger Kcc2 promoter activation (Kcc2 expression enhancer); conditions: 100 nM; 48 h

Kcc2 promoter-driven luciferase activity, inactive:
COC(=O)c1ccc(=O)c2nc3c(=CO)c(O)cc(=O)c3[nH]c12 [Lomofungin] 1.04
COc1cc2c3cc1Oc1c(OC)c(OC)cc4c1C(Cc1ccc(O)c(c1)Oc1ccc(cc1)CC3N(C)CC2)CN(C)C4 (configuration not stated) 0.79
COc1c2c(c(OC)c3c1c(=O)c1ccccc1n3C)OCO2 [Melicopidine] 1.18
C=C(CN(C)C)C(=O)c1ccccc1Cl 1.23
CC(=O)OC[C@H]1O[C@@H](NC(=O)N(CCCl)N=O)[C@H](OC(C)=O)[C@@H](OC(C)=O)[C@@H]1OC(C)=O 1.23
CC(C)C[C@@H]1NC(=O)[C@H](C(C)C)NC(=O)[C@H](C(C)C)OC(=O)[C@@H](CC(C)C)N(C)C(=O)[C@@H](C(C)C)NC(=O)[C@H](C(C)C)OC1=O [Sporidesmolide 1] 1.15
O=C1Nc2c(Cl)cc(Cl)cc2C1=O [5,7-Dichloroisatin] 1.18

A draw from above in order of molar mass, low to high:
Kcc2 promoter-driven luciferase activity, inactive:
O=C1Nc2c(Cl)cc(Cl)cc2C1=O [5,7-Dichloroisatin] 1.18
COc1c2c(c(OC)c3c1c(=O)c1ccccc1n3C)OCO2 [Melicopidine] 1.18
COC(=O)c1ccc(=O)c2nc3c(=CO)c(O)cc(=O)c3[nH]c12 [Lomofungin] 1.04
